PubChem BioAssay AID1259308 – NCATS – 2017
The deposit covers about 59,000 reagents; this is a part drawn at random. About 1,510 of them (2.6%) were called active. 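Calls use total luciferase alone and ignore viability, so some active siRNAs may act by altering cell number.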 The numbers tell different reagents against one gene apart. No sequences are given here.

Aim: 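Knock-downs that increase output of a recombinant reporter protein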 (primary screen)
Cell system: human HEK293 embryonic kidney cells stably expressing firefly luciferase (HEK-CMV-Luc2-Hygro)
Reagents: single siRNA against human genes, 0.8 pmol siRNA per well
Timing: 72 h
Read-out: 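Reporter luminescence and viable-cell signal on separate replicate plates, given as percent of non-targeting control and median/MAD z-scores, plus per-cell luciferase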
Reading the numbers: total luciferase, z-score and total luciferase, % of control: higher = more reporter protein produced; luciferase per cell, z-score: higher = more reporter output per viable cell; viable cells, % of control: higher = more viable cells
Hit rule: 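An siRNA counts as active if its total luciferase robust z-score exceeds 3; genes with two or more such siRNAs out of three were retested with fresh siRNAs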
Meaning of the calls: active = raised luciferase; inactive = no rise

target gene	siRNA no.	total luciferase, z-score	total luciferase, % of control	luciferase per cell, z-score	viable cells, % of control	call
P4HTM (GeneID 54681)	1	-0.0197	81.5	-1.03	119	inactive
P4HTM (GeneID 54681)	2	-1.16	58.8	-1.27	91.8	inactive
P4HTM (GeneID 54681)	3	-0.113	79.6	-0.362	97.9	inactive
PPIH (GeneID 10465)	1	0.213	86.1	0.21	91.1	inactive
PPIH (GeneID 10465)	2	1.37	109	2.35	65.7	inactive
PPIH (GeneID 10465)	3	2.41	130	1.29	103	inactive
IER3 (GeneID 8870)	1	-0.881	64.4	-0.199	75.8	inactive
IER3 (GeneID 8870)	2	-0.871	64.6	-0.977	93.3	inactive
IER3 (GeneID 8870)	3	0.369	89.2	0.881	79	inactive
OR5D14 (GeneID 219436)	1	-0.207	77.8	-0.716	105	inactive
OR5D14 (GeneID 219436)	2	0.041	82.7	-0.599	108	inactive
OR5D14 (GeneID 219436)	3	-1.39	54.3	-0.65	72	inactive
ATG7 (GeneID 10533)	1	0.935	100	1.31	79.5	inactive
ATG7 (GeneID 10533)	2	-0.601	69.9	0.462	69.2	inactive
ATG7 (GeneID 10533)	3	0.366	89.2	0.385	90	inactive
NAT14 (GeneID 57106)	1	-1.85	45.2	-1.73	79.6	inactive
NAT14 (GeneID 57106)	2	0.293	87.7	0.0626	96.4	inactive
NAT14 (GeneID 57106)	3	0.433	90.5	1.08	76.2	inactive
COX6B1 (GeneID 1340)	1	-0.974	62.5	-0.868	87.8	inactive
COX6B1 (GeneID 1340)	2	0.336	88.6	0.738	81.5	inactive
COX6B1 (GeneID 1340)	3	0.337	88.6	-0.178	104	inactive
NCOA2 (GeneID 10499)	1	-0.319	75.5	-0.582	98.4	inactive
NCOA2 (GeneID 10499)	2	-0.192	78.1	0.00721	87.1	inactive
NCOA2 (GeneID 10499)	3	-0.639	69.2	-0.865	97.1	inactive
LTAP1 (GeneID 25912)	1	0.697	95.8	0.0219	106	inactive
LTAP1 (GeneID 25912)	2	-0.203	77.8	-0.0265	87.6	inactive
LTAP1 (GeneID 25912)	3	2.18	125	2.18	78.9	inactive
APPL1 (GeneID 26060)	1	-0.0913	80.1	-0.178	93.8	inactive
APPL1 (GeneID 26060)	2	-0.123	79.4	-0.377	98	inactive
APPL1 (GeneID 26060)	3	0.176	85.4	-0.371	105	inactive
CLIC3 (GeneID 9022)	1	1.7	116	1.26	92.7	inactive
CLIC3 (GeneID 9022)	2	-0.18	78.3	-0.509	100	inactive
CLIC3 (GeneID 9022)	3	2.3	128	1.37	99.4	inactive
STRADB (GeneID 55437)	1	4.25	166	3.06	83	active
STRADB (GeneID 55437)	2	-0.0667	80.6	-0.0602	91.5	inactive
STRADB (GeneID 55437)	3	1.39	110	0.383	111	inactive
ATG13 (GeneID 9776)	1	-0.14	79.1	0.553	76.4	inactive
ATG13 (GeneID 9776)	2	0.0869	83.6	-0.239	99.5	inactive
ATG13 (GeneID 9776)	3	-1.85	45.1	-1.96	84.3	inactive
ACP4 (GeneID 93650)	1	-1.12	59.6	-0.575	77.6	inactive
ACP4 (GeneID 93650)	2	0.26	87.1	-0.879	123	inactive
ACP4 (GeneID 93650)	3	-0.649	69	-1.01	100	inactive
APOBEC3B (GeneID 9582)	1	-0.654	68.9	-0.21	81.4	inactive
APOBEC3B (GeneID 9582)	2	2.82	138	1.82	95.5	inactive
APOBEC3B (GeneID 9582)	3	-0.0541	80.8	0.0101	90.1	inactive
RGS13 (GeneID 6003)	1	-0.598	70	0.605	66.7	inactive
RGS13 (GeneID 6003)	2	-0.0786	80.3	-0.761	110	inactive
RGS13 (GeneID 6003)	3	-0.837	65.2	-0.485	82.8	inactive
ACBD3 (GeneID 64746)	1	-0.0331	81.2	-0.872	114	inactive
ACBD3 (GeneID 64746)	2	1.03	102	0.341	105	inactive
ACBD3 (GeneID 64746)	3	0.467	91.2	0.286	94.5	inactive
SECISBP2 (GeneID 79048)	1	0.402	89.9	2.06	58.4	inactive
SECISBP2 (GeneID 79048)	2	0.469	91.2	-0.145	106	inactive
SECISBP2 (GeneID 79048)	3	4.1	163	2.54	93.5	active
NACC1 (GeneID 112939)	1	-1.97	42.6	-1.2	65.3	inactive
NACC1 (GeneID 112939)	2	0.396	89.8	1.09	75.3	inactive
NACC1 (GeneID 112939)	3	-0.442	73.1	-0.837	102	inactive

Records listed above called active, once more:
target gene	siRNA no.	total luciferase, z-score	total luciferase, % of control	luciferase per cell, z-score	viable cells, % of control	call
STRADB (GeneID 55437)	1	4.25	166	3.06	83	active
SECISBP2 (GeneID 79048)	3	4.1	163	2.54	93.5	active
